Binding data for 6 molecules are collected here from PMC3532209.

Sequences of proteins named here, by UniProt entry; tags and fusion partners are left off.
UniProt P20447: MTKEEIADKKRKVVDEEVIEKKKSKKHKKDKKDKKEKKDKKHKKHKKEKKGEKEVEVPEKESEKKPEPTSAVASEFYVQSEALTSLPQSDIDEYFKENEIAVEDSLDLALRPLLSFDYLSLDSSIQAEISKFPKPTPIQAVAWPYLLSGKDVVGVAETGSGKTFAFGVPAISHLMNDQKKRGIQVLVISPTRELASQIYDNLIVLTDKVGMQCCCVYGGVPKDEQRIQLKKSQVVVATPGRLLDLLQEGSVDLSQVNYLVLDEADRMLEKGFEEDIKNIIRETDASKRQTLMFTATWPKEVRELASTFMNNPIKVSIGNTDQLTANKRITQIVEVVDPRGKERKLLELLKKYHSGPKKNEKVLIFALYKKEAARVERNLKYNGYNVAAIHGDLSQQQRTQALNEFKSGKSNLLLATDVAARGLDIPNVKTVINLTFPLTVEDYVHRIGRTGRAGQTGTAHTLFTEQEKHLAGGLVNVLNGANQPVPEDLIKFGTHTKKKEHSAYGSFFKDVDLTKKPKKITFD
UniProt P10591: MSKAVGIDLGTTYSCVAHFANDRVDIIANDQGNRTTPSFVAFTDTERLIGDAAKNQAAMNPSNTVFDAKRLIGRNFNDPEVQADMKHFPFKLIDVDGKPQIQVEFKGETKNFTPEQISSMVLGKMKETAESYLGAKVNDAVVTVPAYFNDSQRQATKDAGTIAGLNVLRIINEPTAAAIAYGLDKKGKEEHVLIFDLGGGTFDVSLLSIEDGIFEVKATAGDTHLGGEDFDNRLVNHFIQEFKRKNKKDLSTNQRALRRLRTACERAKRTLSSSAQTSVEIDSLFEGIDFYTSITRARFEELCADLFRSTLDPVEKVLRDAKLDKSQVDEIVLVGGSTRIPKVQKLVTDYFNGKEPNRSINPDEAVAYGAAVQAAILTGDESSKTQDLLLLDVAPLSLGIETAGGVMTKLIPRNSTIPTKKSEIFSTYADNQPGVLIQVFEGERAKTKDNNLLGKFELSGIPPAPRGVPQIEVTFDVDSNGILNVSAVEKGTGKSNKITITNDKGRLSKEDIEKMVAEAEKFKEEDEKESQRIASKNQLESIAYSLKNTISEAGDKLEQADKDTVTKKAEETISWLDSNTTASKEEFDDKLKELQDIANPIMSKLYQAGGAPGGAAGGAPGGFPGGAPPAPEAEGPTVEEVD
UniProt P11484: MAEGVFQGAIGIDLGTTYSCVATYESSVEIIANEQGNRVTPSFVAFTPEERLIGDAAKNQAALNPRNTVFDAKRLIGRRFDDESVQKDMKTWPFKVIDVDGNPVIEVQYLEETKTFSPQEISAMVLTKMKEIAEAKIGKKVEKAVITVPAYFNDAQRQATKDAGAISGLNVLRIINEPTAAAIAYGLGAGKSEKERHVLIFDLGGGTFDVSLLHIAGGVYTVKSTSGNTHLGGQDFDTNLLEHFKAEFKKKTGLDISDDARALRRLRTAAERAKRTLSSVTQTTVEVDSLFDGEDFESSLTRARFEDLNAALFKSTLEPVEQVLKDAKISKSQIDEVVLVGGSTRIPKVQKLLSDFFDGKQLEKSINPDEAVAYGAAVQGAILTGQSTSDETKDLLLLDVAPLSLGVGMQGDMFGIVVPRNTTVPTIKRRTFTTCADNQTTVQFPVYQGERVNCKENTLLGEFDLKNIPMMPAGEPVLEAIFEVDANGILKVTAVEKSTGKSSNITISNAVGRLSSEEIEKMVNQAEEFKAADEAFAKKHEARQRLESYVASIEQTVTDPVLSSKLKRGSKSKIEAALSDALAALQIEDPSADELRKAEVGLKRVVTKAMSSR

The target of this test is T1, GST-tagged Mdy2 (S. cerevisiae) (UniProt Q12285).
T1 sequence: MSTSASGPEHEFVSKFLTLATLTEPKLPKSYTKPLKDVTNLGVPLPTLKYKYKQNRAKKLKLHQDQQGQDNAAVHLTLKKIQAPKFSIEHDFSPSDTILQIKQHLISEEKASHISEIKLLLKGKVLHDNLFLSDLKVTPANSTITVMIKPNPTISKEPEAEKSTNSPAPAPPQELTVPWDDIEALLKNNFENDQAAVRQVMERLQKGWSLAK
Description: affinity purification with mass spectrometry; lysates of GST-tagged Mdy2 strains precipitated with Glutathione Sepharose 4B, washed, eluted with glutathione, SDS-PAGE, bands around 70 kD identified by mass spectrometry.

No constants are given. Whether binding was seen depends on the method and setting. Binding seen in cells or lysates may run through a third protein. A yes stands for co-enrichment or nearness to the bait. Other partners may have been found. Sequences can lack the tags named with a protein.

For “ATP-dependent RNA helicase Dbp3 (from UniProt P20447 1-523)”, the binding result is “binds”. The same measure for Ssa1 (from UniProt P10591 1-642): “binds”; for Ssb1 (from UniProt P11484 1-613): “binds”.

B1: checkpoint serine/threonine-protein kinase Bub1 (protein, UniProt P41695 1-1021)
chain: MNLDLGSTVRGYESDKDTFPQSKGVSSSQKEQHSQLNQTKIAYEQRLLNDLEDMDDPLDLFLDYMIWISTSYIEVDSESGQEVLRSTMERCLIYIQDMETYRNDPRFLKIWIWYINLFLSNNFHESENTFKYMFNKGIGTKLSLFYEEFSKLLENAQFFLEAKVLLELGAENNCRPYNRLLRSLSNYEDRLREMNIVENQNSVPDSRERLKGRLIYRTAPFFIRKFLTSSLMTDDKENRANLNSNVGVGKSAPNVYQDSIVVADFKSETERLNLNSSKQPSNQRLKNGNKKTSIYADQKQSNNPVYKLINTPGRKPERIVFNFNLIYPENDEEFNTEEILAMIKGLYKVQRRGKKHTEDYTSDKNRKKRKLDVLVERRQDLPSSQPPVVPKSTRIEVFKDDDNPSQSTHHKNTQVQVQTTTSILPLKPVVDGNLAHETPVKPSLTSNASRSPTVTAFSKDAINEVFSMFNQHYSTPGALLDGDDTTTSKFNVFENFTQEFTAKNIEDLTEVKDPKQETVSQQTTSTNETNDRYERLSNSSTRPEKADYMTPIKETTETDVVPIIQTPKEQIRTEDKKSGDNTETQTQLTSTTIQSSPFLTQPEPQAEKLLQTAEHSEKSKEHYPTIIPPFTKIKNQPPVIIENPLSNNLRAKFLSEISPPLFQYNTFYNYNQELKMSSLLKKIHRVSRNENKNPIVDFKKTGDLYCIRGELGEGGYATVYLAESSQGHLRALKVEKPASVWEYYIMSQVEFRLRKSTILKSIINASALHLFLDESYLVLNYASQGTVLDLINLQREKAIDGNGIMDEYLCMFITVELMKVLEKIHEVGIIHGDLKPDNCMIRLEKPGEPLGAHYMRNGEDGWENKGIYLIDFGRSFDMTLLPPGTKFKSNWKADQQDCWEMRAGKPWSYEADYYGLAGVIHSMLFGKFIETIQLQNGRCKLKNPFKRYWKKEIWGVIFDLLLNSGQASNQALPMTEKIVEIRNLIESHLEQHAENHLRNVILSIEEELSHFQYKGKPSRRF
As to B1, the binding result is on record as “binds”.

B2: transketolase Tkl1 (protein, UniProt P23254 1-680)
chain: MTQFTDIDKLAVSTIRILAVDTVSKANSGHPGAPLGMAPAAHVLWSQMRMNPTNPDWINRDRFVLSNGHAVALLYSMLHLTGYDLSIEDLKQFRQLGSRTPGHPEFELPGVEVTTGPLGQGISNAVGMAMAQANLAATYNKPGFTLSDNYTYVFLGDGCLQEGISSEASSLAGHLKLGNLIAIYDDNKITIDGATSISFDEDVAKRYEAYGWEVLYVENGNEDLAGIAKAIAQAKLSKDKPTLIKMTTTIGYGSLHAGSHSVHGAPLKADDVKQLKSKFGFNPDKSFVVPQEVYDHYQKTILKPGVEANNKWNKLFSEYQKKFPELGAELARRLSGQLPANWESKLPTYTAKDSAVATRKLSETVLEDVYNQLPELIGGSADLTPSNLTRWKEALDFQPPSSGSGNYSGRYIRYGIREHAMGAIMNGISAFGANYKPYGGTFLNFVSYAAGAVRLSALSGHPVIWVATHDSIGVGEDGPTHQPIETLAHFRSLPNIQVWRPADGNEVSAAYKNSLESKHTPSIIALSRQNLPQLEGSSIESASKGGYVLQDVANPDIILVATGSEVSLSVEAAKTLAAKNIKARVVSLPDFFTFDKQPLEYRLSVLPDNVPIMSVEVLATTCWGKYAHQSFGIDRFGASGKAPEVFKFFGFTPEGVAERAQKTIAFYKGDKLISPLKKAF
As to B2, the binding entry is given as “binds”.

B3: pre-mRNA polyadenylation factor Fip1 (protein, UniProt P45976 1-327)
chain: MSSSEDEDDKFLYGSDSELALPSSKRSRDDEADAGASSNPDIVKRQKFDSPVEETPATARDDRSDEDIYSDSSDDDSDSDLEVIISLGPDPTRLDAKLLDSYSTAATSSSKDVISVATDVSNTITKTSDERLITEGEANQGVTATTVKATESDGNVPKAMTGSIDLDKEGIFDSVGITTIDPEVLKEKPWRQPGANLSDYFNYGFNEFTWMEYLHRQEKLQQDYNPRRILMGLLSLQQQGKLNSANDTDSNLGNIIDNNNNVNNANMSNLNSNMGNSMSGTPNPPAPPMHPSFPPLPMFGSFPPFPMPGMMPPMNQQPNQNQNQNSK
Turning to B3, the binding result is “binds”.
